From PubChem BioAssay AID485349 (National Center for Advancing Translational Sciences (NCATS), 2010)
Out of some 320,000 compounds screened, about 620 (0.19%) were called active. Inconclusive results, whose numbers are uncertain, are shown with a selection of clear calls. Calls come from the whole dose curve; as a rule, active = well fitted activation curve with a large enough effect; inconclusive = small, poorly fitted or top-dose-only effect; inactive = no such curve, though single readings can be large or run the other way. Potencies of inconclusive entries are doubtful fits and often do not repeat.

Experiment: qHTS Assay for Identifying a Potential Treatment of Ataxia-Telangiectasia; note: nearly all actives have a fitted effect of over 45% in size; for activation: % of control where 0% means no effect
Conditions: […] A-T fibroblasts, KAP-1 phosphorylation AlphaLISA, neocarzinostatin DNA damage 30 min before lysis; series mostly up to 57.5 µM; activation: at the top concentration
Method in brief: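 hTERT-immortalized A-T patient fibroblasts ([…]), 500 cells/well in OPTI-MEM, 1% FBS, got compounds for 60 min, then NCS for 30 min at 37C. Lysates were then assayed for phospho-KAP-1 by AlphaLISA (anti-pKAP1 donor, anti-KAP1 acceptor beads), 6 hr at 25C.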
Potency is the fitted concentration of half-maximal effect.

| Compound | Potency | activation |
| --- | --- | --- |
| CCN(CC)c1ccc2c(c1)oc(=O)c1c(Cl)cc(=O)oc12 | inconclusive: 39.8 µM [activator, partial curve, poor fit] | – |
| CCOC(=O)N1CCN(C(=O)CSc2nc3c([nH]c4ccccc43)c(=O)n2CCOC)CC1 | – | inactive: 4.27% |
| Cc1ccc(C2(c3ccc(C)cc3)CC2C(=O)Nc2ccc([N+](=O)[O-])cc2O)cc1 (stereo unspecified) | inconclusive: 28.2 µM [activator, single point] | – |
| C[C@@H](C[C@@H](O)[C@H](O)C(C)(C)O)[C@@H]1CC[C@]2(C)C3=CC[C@H]4C(C)(C)C(=O)CC[C@]4(C)[C@H]3CC[C@@]12C | inconclusive: 35.5 µM [activator, single point] | – |
| O=C1C(Cl)=C(Nc2ccc3cn[nH]c3c2)C(=O)c2ccccc21 | inconclusive: 3.55 µM [activator, single point] | – |
| S=C(NCCc1ccccn1)Nc1ccccc1Cl | – | inactive: -2.11% |
| CCCc1nc(N)sc1C(=O)OCC | – | inactive: -2.7% |
| COc1ccc(C(=O)N2CCN(c3c(C)cccc3C)CC2)cc1OC | inconclusive: 7.08 µM [activator, partial curve] | – |
| CCOC(=O)c1c(C)[nH]c(C(=O)Cn2nnc(-c3ccccc3Cl)n2)c1C | inconclusive: 39.8 µM [activator, single point] | – |
| CNC(=O)CC(CC(=O)c1ccccc1)c1ccccc1 (stereo unspecified) | inconclusive: 15.8 µM [activator, partial curve] | – |
| COC(=O)c1cccc(C23CC4(C2)[C@H](CN(Cc2ccc(C(F)(F)F)cc2)[C@@H]4c2ccccc2)C3c2ccccc2)c1 (stereo partly specified) | inconclusive: 22.4 µM [activator, single point] | – |
| O=C(CNC(=O)OCc1ccccc1)Oc1ccc2ccc(=O)oc2c1 | inconclusive: 39.8 µM [activator, single point] | – |
| CCC1Oc2ccc(C)cc2N(Cc2cccc(C)c2)C1=O (stereo unspecified) | inconclusive: 39.8 µM [activator, single point] | – |
| CC1=Nn2c(nnc2-c2cc(-c3ccccc3)n[nH]2)SC1 | – | inactive: -1.88% |
| COc1cc(-c2noc(C3CCCN(C(=O)c4c(F)cccc4F)C3)n2)cc(OC)c1OC (stereo unspecified) | inconclusive: 22.4 µM [activator, single point] | – |
| Nc1nc(SCC(=O)Nc2cc(Cl)c(Cl)cc2Cl)n[nH]1 | inconclusive: 5.01 µM [activator, full curve, poor fit] | – |
| CC(NC(=O)COC(=O)/C=C/c1ccc(Cl)cc1)c1ccccc1 (stereo unspecified) | active: 3.16 µM | – |
| Cc1ccc(Cn2ccsc2=NC(=O)COC(=O)c2ccc(NC(=O)CC#N)cc2)cc1 | – | inactive: -0.413% |
| Cc1ccc(S(=O)(=O)N2CCOCC2)cc1C(=O)OCC(=O)NC1CCCCC1 | inconclusive: 0.631 µM [activator, partial curve, poor fit] | – |
| O=C(CN1CCN(c2ccccn2)CC1)Nc1cccc(Br)c1 | active: 15.8 µM | – |
| CCCNc1nc(C)cc(-c2cc(-c3ccccc3)on2)n1 | inconclusive: 39.8 µM [activator, single point] | – |
| COc1ccc2c(c1)CCc1c(C(=O)N3CCOCC3)noc1-2 | – | inactive: 7.07% |
| N/C(Cc1ccc(Cl)cc1Cl)=N\OC(=O)Cc1ccc(Cl)cc1 | – | inactive: 11.8% |
| BrC(=C\c1ccccc1)/C=N/Nc1nc2ccccc2[nH]1 | inconclusive: 22.4 µM [activator, partial curve] | – |

| Compound | Potency | activation |
| --- | --- | --- |
| COc1ccccc1C1CCN(Cc2ccc(Cl)c(Cl)c2)CC1 | active: 25.1 µM | – |
| N/C(=N\OC(=O)c1cccc2ccccc12)c1ccc(Br)cc1 | inconclusive: 11.2 µM [activator, partial curve] | – |
| O=C(CS(=O)(=O)c1ccccc1)c1cc2cc(F)ccc2oc1=O | inconclusive: 39.8 µM [activator, single point] | – |
| CCC(=O)Nc1ccc(NC(=O)c2cc3ccccc3o2)cc1 | inconclusive: 39.8 µM [activator, single point] | – |
| COc1ccc2sc(-c3ccc(N(C)C)cc3)c(C#CCO)c2c1 | active: 31.6 µM | – |
| COC(=O)C1=CN(CCCN2CCCC2=O)C=C(C(=O)OC)C1c1ccccc1C(F)(F)F | inconclusive: 39.8 µM [activator, single point] | – |
| C/C=C/c1ccc(OCCCCOc2c(OC)cccc2OC)c(OC)c1 | inconclusive: 25.1 µM [activator, single point] | – |
| Cc1cc(NC(=O)CN(C)S(=O)(=O)c2cccc(Cl)c2)no1 | inconclusive: 0.631 µM [activator, full curve, poor fit] | – |
| Cc1c2ccccc2c(C)c2c1ccc1ccccc12 | inconclusive: 17.8 µM [activator, partial curve] | – |
| CCN(CC)CCCCNc1ncc2cc(-c3cc(OC)cc(OC)c3)c(NC(=O)NC(C)(C)C)nc2n1 | inconclusive: 39.8 µM [activator, single point] | – |
| CCOc1ccc(S(=O)(=O)N2CCCC(C(=O)NC3CC3)C2)cc1Cl (stereo unspecified) | inconclusive: 11.2 µM [activator, partial curve] | – |
| CC(C)CN(C1CCS(=O)(=O)C1)S(=O)(=O)c1ccc(C(C)C)cc1 (stereo unspecified) | – | inactive: 10.2% |
| O=C1C=C(NCCN2CCOCC2)C(=O)c2cnccc21 | inconclusive: 39.8 µM [activator, single point] | – |
| Cc1ccc(C)c(OCCCCn2cnc3ccccc3c2=O)c1 | inconclusive: 15.8 µM [activator, partial curve] | – |
| CCCOc1cc(C)nc(-c2ccccc2O)n1 | inconclusive: 39.8 µM [activator, single point] | – |
| CCc1c(C)nc(N2CCN(c3cccc(OC)c3)CC2)[nH]c1=O | – | inactive: -0.21% |
| C/C=C\C(=O)Nc1cccc(C2=NOC3(C2)C[C@@H](C(N)=O)N(C(=O)CC(c2ccccc2)c2ccccc2)C3)c1 (stereo partly specified) | inconclusive: 39.8 µM [activator, single point] | – |
| CC(NS(=O)(=O)c1ccccc1)C(=O)NCCc1ccccn1 (stereo unspecified) | inconclusive: 3.16 µM [activator, partial curve] | – |
| CN(Cc1nccs1)C(=O)CC1C(=O)NCCN1Cc1ccc(-c2ccccc2)cc1 (stereo unspecified) | inconclusive: 39.8 µM [activator, single point] | – |
| Clc1ccccc1CN1CCC(Cc2ccccc2)CC1 | inconclusive: 39.8 µM [activator, single point] | – |
| CC(=O)c1ccc(NC(=S)NC(=O)/C=C/c2ccc(F)cc2)cc1 | active: 3.16 µM | – |
| Cc1ccc(/C=C2\SC(=S)N(C3CCS(=O)(=O)C3)C2=O)o1 (stereo unspecified) | – | inactive: -4.24% |
| O=C(Nc1ncc2c(n1)CC(c1cccc(Cl)c1)CC2=O)c1ccco1 (stereo unspecified) | active: 12.6 µM | – |
| Cc1ccn(CC(=O)N2CCCC(Nc3ccc(F)c(F)c3)C2)n1 (stereo unspecified) | inconclusive: 35.5 µM [activator, single point] | – |

Quoted at random: 5 compounds from above

| Compound | Potency | activation |
| --- | --- | --- |
| S=C(NCCc1ccccn1)Nc1ccccc1Cl | – | inactive: -2.11% |
| Cc1ccc(C2(c3ccc(C)cc3)CC2C(=O)Nc2ccc([N+](=O)[O-])cc2O)cc1 (stereo unspecified) | inconclusive: 28.2 µM [activator, single point] | – |
| CCC(=O)Nc1ccc(NC(=O)c2cc3ccccc3o2)cc1 | inconclusive: 39.8 µM [activator, single point] | – |
| Cc1ccc(/C=C2\SC(=S)N(C3CCS(=O)(=O)C3)C2=O)o1 (stereo unspecified) | – | inactive: -4.24% |
| C/C=C\C(=O)Nc1cccc(C2=NOC3(C2)C[C@@H](C(N)=O)N(C(=O)CC(c2ccccc2)c2ccccc2)C3)c1 (stereo partly specified) | inconclusive: 39.8 µM [activator, single point] | – |

Next part:

| Compound | Potency | activation |
| --- | --- | --- |
| CCOC(=O)c1c(-c2ccc(C)o2)csc1NC(=O)CSc1nncs1 | – | inactive: 0.754% |
| O=C(NCCN1CCOCC1)c1noc2c1CCc1ccccc1-2 | – | inactive: -4.44% |
| CCOc1ccc(OCC)c(NC(=O)CN2CCN(CC(=O)NC(C)C)CC2)c1 | inconclusive: 8.91 µM [activator, full curve, poor fit] | – |
| COc1ccc(C(=O)NC(=S)NNC(=O)[C@H]2C[C@@H]2c2ccccc2)cc1OC | – | inactive: 1.54% |
| O=C(Cn1nnc2c(cnn2-c2ccc(F)cc2)c1=O)Nc1ccccc1C(F)(F)F | – | inactive: 4.25% |
| O=C(Nc1ccc2c(c1)oc1ccccc12)N1CCOCC1 | – | inactive: 12.2% |
| O=C(COc1ncnc2cc(Cl)ccc12)c1ccc2c(c1)OCCO2 | inconclusive: 39.8 µM [activator, single point] | – |
| O=c1oc2c(O)cccc2cc1-c1nc2ccccc2[nH]1 | inconclusive: 39.8 µM [activator, single point] | – |
| Cc1ccc2nc3c(cc2c1)c(NC(=O)C1CCCO1)nn3CC(C)C (stereo unspecified) | inconclusive: 20 µM [activator, single point] | – |
| O=C(CCCc1nc2ccccc2s1)NCc1ccccc1 | inconclusive: 3.55 µM [activator, partial curve] | – |
| Cc1ccc(CN2CCN(Cc3ccccc3C(F)(F)F)CC2)cc1 | inconclusive: 39.8 µM [activator, single point] | – |
| CCn1c(SCC(=O)N2CCCc3ccccc32)nnc1-c1c[nH]c2ccccc12 | inconclusive: 6.31 µM [activator, partial curve] | – |
| N#CCCn1nnc(-c2ccccc2F)n1 | inconclusive: 31.6 µM [activator, single point] | – |
| Cc1cccc(Nc2nnc(SCC(=O)c3ccc(Br)s3)s2)c1C | – | inactive: 1.88% |
| CN(C1CCCC1)C1CCN(C(=O)CNC(=O)/C=C/c2ccc(F)cc2)CC1 | inconclusive: 3.16 µM [activator, partial curve] | – |
| CCCCNc1c(-c2ccc(OC)c(SC3CCCCC3)c2)nc2cc(C)ccn12 | active: 31.6 µM | – |
| CCN(CC)S(=O)(=O)c1ccc(N2CCOCC2)c(NC(=O)c2ccc3c(c2)OCCO3)c1 | – | inactive: -13.3% |
| NC(=O)c1ccc[n+](CC(=O)NCc2ccc(Cl)cc2)c1 | inconclusive: 3.55 µM [activator, partial curve] | – |
| CCn1cc(C(=O)N2CCCC(C(=O)c3ccc4ccccc4c3)C2)cn1 (stereo unspecified) | – | inactive: -3.13% |
| COc1ccccc1C1CC(c2ccco2)=NN1c1ccccc1 (stereo unspecified) | active: 20 µM | – |
| Nn1cnnc1N/N=C/c1ccc(F)cc1 | inconclusive: 31.6 µM [activator, single point] | – |
| C[C@H]1C(c2ccc(F)cc2)=NN(c2ccccc2)[C@@H]1CO | inconclusive: 22.4 µM [activator, partial curve] | – |
| CCn1c(=O)c([N+](=O)[O-])c(NCc2ccco2)c2ccccc21 | inconclusive: 3.55 µM [activator, partial curve] | – |
